Data as given in paper PMC13581288, “The chromokinesin Kid (KIF22) forms a homodimer, moves processively along microtubules, and transports double-stranded DNA” (eLife, 2024).

Legend:
XKid delta-tail = target: T1, XKid delta-tail (UniProt Q9I869); assay: single-molecule TIRF DNA transport on microtubules; conditions: transport abolished (transport read-out), TIRF single-molecule motility assay on microtubules, assay buffer, recombinant protein, label: 5'-Cy3 on both strands, only the site is given
T1 sequence (looked up, limits assumed): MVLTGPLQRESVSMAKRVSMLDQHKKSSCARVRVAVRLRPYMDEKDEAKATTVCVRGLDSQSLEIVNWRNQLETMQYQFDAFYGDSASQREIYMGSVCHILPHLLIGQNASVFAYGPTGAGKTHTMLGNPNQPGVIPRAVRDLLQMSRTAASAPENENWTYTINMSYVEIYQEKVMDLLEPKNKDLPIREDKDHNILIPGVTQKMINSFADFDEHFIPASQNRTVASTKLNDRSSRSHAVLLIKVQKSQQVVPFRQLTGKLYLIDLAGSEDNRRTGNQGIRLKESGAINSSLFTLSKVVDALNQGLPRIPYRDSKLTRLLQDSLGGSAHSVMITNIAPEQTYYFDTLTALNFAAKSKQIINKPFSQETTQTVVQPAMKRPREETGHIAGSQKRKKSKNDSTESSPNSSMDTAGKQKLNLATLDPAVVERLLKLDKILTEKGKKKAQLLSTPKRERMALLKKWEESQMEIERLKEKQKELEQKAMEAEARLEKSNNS

[1] = target: T2, XKid full-length (XKidFL-mScarlet) (UniProt Q9I869); assay: single-molecule TIRF DNA transport on microtubules; conditions: ssDNA movement not driven (transport read-out), TIRF single-molecule motility assay on microtubules, assay buffer, recombinant protein, residues 1-651, label: 5'-Cy3, single-stranded DNA
T2 sequence (looked up): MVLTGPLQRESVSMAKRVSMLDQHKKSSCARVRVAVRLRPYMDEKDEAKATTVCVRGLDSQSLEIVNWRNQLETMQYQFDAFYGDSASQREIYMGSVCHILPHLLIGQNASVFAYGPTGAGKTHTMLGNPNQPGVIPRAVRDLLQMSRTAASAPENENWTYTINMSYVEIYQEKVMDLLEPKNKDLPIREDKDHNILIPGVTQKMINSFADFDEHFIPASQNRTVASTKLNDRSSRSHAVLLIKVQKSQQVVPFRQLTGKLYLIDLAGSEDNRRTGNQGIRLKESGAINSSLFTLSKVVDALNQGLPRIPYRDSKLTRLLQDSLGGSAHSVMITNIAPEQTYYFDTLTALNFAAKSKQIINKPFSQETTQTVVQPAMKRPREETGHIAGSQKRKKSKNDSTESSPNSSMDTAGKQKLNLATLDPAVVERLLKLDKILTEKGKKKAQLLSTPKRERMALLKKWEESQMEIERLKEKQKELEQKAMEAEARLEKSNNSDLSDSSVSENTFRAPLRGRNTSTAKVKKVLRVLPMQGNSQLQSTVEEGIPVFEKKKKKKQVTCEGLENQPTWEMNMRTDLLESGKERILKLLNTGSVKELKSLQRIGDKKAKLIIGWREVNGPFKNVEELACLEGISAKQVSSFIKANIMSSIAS

Row | Sequence | binding result (XKid delta-tail) | binding result [1]
1 | GAGAATCGCCGGTTGATAATCTTCCTAGTAGGTAGTATTGGTGTTGAGTCGCTCA / GAGAATCGCCGGTTGATAATCTTTGAGCGACTCAACACCAATACTACCTACTAGG [Cy3 dsDNA '100 bp' (oligos #1+#2)] | no binding | 
2 | GAGAATCGCCGGTTGATAATCTTCCTAGTAGGTAGTATTGGTGTTGAGTCGCTCA [Cy3 ssDNA (oligo #1)] |  | no binding

No signal at the amounts used counts as a negative. Tags and fusion partners may be left off the protein sequences shown. For some assays here: Construct, isoform or probe ends are uncertain for at least one entry. For some assays here: At least one verdict was read from the data and is not stated in words by the source.
